Experimental data: paper PMC6960452
Results are given in words; binding and its absence hold for the method and conditions named. Binding seen in cells or lysates may run through a third protein. Some entries that bind do so weakly or less than the wild type. Sequences can lack the tags named with a protein.

By UniProt entry, the sequences of proteins in these tests, tags left out. Where a name states a change or a piece, a line headed by the entry shows the natural chain unless it says otherwise. Residues count along the entry.
UniProt Q5S006: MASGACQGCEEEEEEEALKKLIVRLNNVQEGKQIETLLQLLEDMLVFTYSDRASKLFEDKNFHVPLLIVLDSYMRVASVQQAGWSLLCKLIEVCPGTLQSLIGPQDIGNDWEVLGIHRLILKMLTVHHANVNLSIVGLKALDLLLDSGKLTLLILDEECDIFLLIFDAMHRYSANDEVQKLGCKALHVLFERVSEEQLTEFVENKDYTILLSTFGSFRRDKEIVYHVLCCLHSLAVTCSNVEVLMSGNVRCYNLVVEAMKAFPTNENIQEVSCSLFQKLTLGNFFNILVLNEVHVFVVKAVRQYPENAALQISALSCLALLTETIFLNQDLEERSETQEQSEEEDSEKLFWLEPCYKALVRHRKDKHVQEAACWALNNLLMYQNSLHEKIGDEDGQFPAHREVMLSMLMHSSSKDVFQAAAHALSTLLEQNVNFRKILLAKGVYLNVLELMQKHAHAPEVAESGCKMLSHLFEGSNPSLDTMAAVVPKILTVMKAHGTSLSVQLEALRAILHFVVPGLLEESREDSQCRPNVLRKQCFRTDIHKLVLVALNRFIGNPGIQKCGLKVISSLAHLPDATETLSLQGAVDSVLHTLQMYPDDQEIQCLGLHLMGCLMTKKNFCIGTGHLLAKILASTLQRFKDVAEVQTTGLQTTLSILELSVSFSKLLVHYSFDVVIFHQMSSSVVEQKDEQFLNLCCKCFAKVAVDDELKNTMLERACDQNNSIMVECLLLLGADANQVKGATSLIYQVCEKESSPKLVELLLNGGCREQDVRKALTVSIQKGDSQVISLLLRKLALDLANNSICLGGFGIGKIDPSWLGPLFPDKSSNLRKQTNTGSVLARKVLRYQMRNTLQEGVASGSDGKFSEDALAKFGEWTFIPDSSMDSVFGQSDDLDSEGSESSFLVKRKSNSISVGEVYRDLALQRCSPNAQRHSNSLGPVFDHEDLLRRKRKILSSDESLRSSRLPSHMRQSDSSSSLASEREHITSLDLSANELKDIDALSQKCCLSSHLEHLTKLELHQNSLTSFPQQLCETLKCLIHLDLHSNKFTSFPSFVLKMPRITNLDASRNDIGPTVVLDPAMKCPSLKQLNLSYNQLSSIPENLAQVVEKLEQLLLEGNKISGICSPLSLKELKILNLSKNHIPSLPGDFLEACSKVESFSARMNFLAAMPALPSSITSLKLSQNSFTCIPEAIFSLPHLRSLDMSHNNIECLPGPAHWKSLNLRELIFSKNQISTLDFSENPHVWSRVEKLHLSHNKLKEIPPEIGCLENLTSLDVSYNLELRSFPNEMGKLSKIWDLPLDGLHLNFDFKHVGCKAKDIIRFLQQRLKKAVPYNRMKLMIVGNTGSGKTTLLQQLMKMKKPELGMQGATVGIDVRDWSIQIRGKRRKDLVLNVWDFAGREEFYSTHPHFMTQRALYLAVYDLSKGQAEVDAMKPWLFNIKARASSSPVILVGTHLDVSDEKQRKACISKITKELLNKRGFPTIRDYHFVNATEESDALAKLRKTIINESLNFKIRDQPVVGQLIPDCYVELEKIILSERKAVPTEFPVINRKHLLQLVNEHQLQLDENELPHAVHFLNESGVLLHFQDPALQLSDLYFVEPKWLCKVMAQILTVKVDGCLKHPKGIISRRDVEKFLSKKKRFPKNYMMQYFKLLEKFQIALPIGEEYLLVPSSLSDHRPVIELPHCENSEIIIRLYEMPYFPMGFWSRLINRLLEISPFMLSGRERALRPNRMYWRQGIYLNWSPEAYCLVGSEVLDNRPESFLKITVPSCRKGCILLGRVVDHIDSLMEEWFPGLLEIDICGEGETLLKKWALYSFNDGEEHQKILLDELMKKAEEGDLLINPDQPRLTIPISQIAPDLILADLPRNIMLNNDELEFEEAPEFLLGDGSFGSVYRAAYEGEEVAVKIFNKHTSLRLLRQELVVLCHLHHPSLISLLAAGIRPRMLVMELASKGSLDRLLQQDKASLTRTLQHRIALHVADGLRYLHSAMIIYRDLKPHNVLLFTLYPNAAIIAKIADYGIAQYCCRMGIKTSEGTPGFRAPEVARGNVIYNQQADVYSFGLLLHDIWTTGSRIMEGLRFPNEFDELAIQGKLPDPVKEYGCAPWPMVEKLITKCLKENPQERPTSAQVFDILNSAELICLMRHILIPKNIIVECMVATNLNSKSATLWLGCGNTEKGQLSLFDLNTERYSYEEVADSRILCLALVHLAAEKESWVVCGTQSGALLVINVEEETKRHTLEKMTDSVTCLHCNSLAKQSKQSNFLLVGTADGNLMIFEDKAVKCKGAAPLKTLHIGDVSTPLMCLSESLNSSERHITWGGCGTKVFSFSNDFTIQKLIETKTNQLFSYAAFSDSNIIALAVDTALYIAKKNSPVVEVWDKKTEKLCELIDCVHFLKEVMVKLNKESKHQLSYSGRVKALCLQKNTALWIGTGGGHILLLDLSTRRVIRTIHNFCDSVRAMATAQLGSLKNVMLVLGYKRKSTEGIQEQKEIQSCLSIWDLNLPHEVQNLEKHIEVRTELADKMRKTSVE
LRRK2-d1 (a.a. 1–1,515): residues 1-1515 of Q5S006

How the values were obtained:
[1] = target: LRRK2(S1292A), phosphorylation-defective (V5-tagged) (mouse) (UniProt Q5S006); test: co-IP; HEK293 cells transfected with LRRK2(S1292A) or LRRK2(S1292D) and E3 ubiquitin ligases; lysates immunoprecipitated with antibody against Myc or V5 epitope, immunoblot (Fig 6C)
[2] = target: LRRK2 (wild type, V5-tagged) (mouse) (UniProt Q5S006); test: co-IP; HEK293 cells transfected with PERK and either MARCH5, MULAN or Parkin along with LRRK2 or mutant LRRK2; lysates immunoprecipitated with antibody against Myc or V5, immunoblot (Fig 6A)
[3] = target: LRRK2(D1994A), kinase-dead (V5-tagged) (mouse) (UniProt Q5S006); test: as above
[4] = target: LRRK2-d1 (a.a. 1–1,515) (mouse) (UniProt Q5S006); test: co-IP; HEK293 cells transfected with deletion constructs of LRRK2(G2019S) and E3 ubiquitin ligases; lysates (TNE buffer) immunoprecipitated with antibody against the V5 or HA epitope, immunoblot (Fig 3D)

- binding [1]: binds
- binding [2]: binds
- binding [3]: binds
- binding [4]: binds
B1: MULAN (Myc-tagged) (enzyme, UniProt Q8VCM5 1-352)
chain: MESGSRPSLGQVILLGTSSMVTAVLYSIYRQKAQVAQELKGAKKIHLGEDLKGILSEAPGKCVPYAVIEGAVRSVKETLNSQFVENCKGVIQRLSLQEHKMVWNRTTHLWNDYSKIIHQRTNTVPFDLVPHEDGVAVSVRVLKPLDSVDLGLETVYEKFHPSVQSFTDAIGHYISGERPKGIQETEEMLKVGATLTGIGELVLDNNAVRLQPPKQGMQYYLSSQDFDSLLHRQESSVRLWKILVLVFGFATCATLFFILRKQYLHRQERLRQQQLQEEFLEHEAQLLSQASPEDRESLKSACVVCLSNFKSCVFLECGHVCSCRQCYLALPEPKRCPICRREITRVIPLYNS
